Drawing on PubChem BioAssay AID1508600 (Functional Genomics Laboratory (NCATS/FGL), 2020), this text covers z-score for 69 sequences.

In all, about 53,000 sequences went through this assay and about 3,700 (7%) were called active.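 The calls were made as follows: active = gene knockdowns whose robust z-score for IL-1 alpha signal is at least 2 or at most -2, so actives lie on both sides; inactive = the rest.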 The list shows a part of the results.

This assay is described as follows: Components of the Cytosolic LPS Sensing Pathway: Gene Identification via Genome-wide siRNA Screen.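 Also: robust z of the log signal after scaling to non-targeting control siRNA wells of the plate.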 The settings on record: RAW264.7 macrophages, IL-1a HTRF, actives lie on both sides, screened at 100 nM (by protocol), cells primed 5 h with Pam3CSK4 first. The method, boiled down:
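RAW264.7 mouse macrophages reverse-transfected with single siRNAs (100 nM final) for 48h, primed with Pam3CSK4 for 5 hours, then transfected with LipidA for 24 hour. Supernatant IL-1a read by HTRF; values normalized to negative-control median, log-transformed robust z-scores.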
GGAUGAACCUACACCCUAATT against Dhrs13: the z-score is inactive: -0.166. For GGCAAAAAAAAAAUGCCCATT against Sox2 the value was inactive: -0.742. With GGUCCAAAACCAUCAGAAGTT against Plekha5, the z-score was inactive: -0.668. As to GGUCAACAGUUACAUCGAGTT against Vps33a, the z-score was inactive: 0.273. In the case of CCUGAACUAUAGAUGGAUUTT against Manba, the z-score was active: 3.37. For GGAUUGCUCUAGCCAUUGUTT against Olfr691 the value was inactive: 0.57; for GCAUAAUGAAGUUCCAAAUTT against Casd1, inactive: 1.34; for GGGUCAUCGGAACAGAACUTT against Sult3a1, active: -2.26.

For the sequence GAGCAGAACCGCAUCAUAUTT against Ucn, the z-score is inactive: -0.22. On to GGCAAGAUGCACAAGACUUTT against Cacna1s, for which the z-score was active: 2.6.

As for GGAAAGACUUACCAGAAUATT against Smarca2, the z-score was inactive: 1.16.

Take GGGUCACUGAAGGUACUCUTT against Cd300c2: the z-score was inactive: -1.41. Take CCUGAGGACCACUACUUUUTT against Actr3b: the z-score is inactive: 1.44.

Take CGAGAAAAACGAUUUACUGTT against Orai2: the z-score is inactive: -0.527. As for CGGAUUGAGUAAUUAUUUCTT against Morc4, the z-score was inactive: 0.279. As to CCGUGGAUAACAUGAGCAUTT against Agpat2, the z-score is inactive: -0.491. As for GCACCACAAUGAAACGUGCTT against Cacng1, the z-score is inactive: -0.0521.

Consider GGACCUACCAGAAUCUGGUTT against Phip, for which the z-score is inactive: -1.32.

As for GGAACUUGGUAUUUAGAUCTT against Rhot2, the z-score was inactive: 0.295.

With GGUACUACUUUCUAAUUCATT against Vcam1, the z-score is inactive: 1. Regarding GCUAAGUACGUUCAUGGCATT against Gba, the z-score was inactive: 0.571. For CCUGGAUGGAUUUAAGGCATT against Abcd4 the value was inactive: 0.782; for CGCUUUAGUGACUUUCAAATT against Metrnl, inactive: -0.583. In the case of GGAACUGGAUCAAGAAUUUTT against Hhat, the z-score was inactive: 0.0393. On to CCAGUAAAGUAGGUUUUCUTT against Auts2, for which the z-score was inactive: 1.36. With GGAUGAAGAUGGAGACAUGTT against Lmx1b, the z-score was active: -2.58. As for CCGCAGUUGUCUUUCAAGATT against Dcaf1, the z-score was inactive: 0.724. Turning to GGGUAGACUGUCAGAUUUUTT against Tmc5, the z-score is inactive: 1.35. For GCACAUUACUCCUUAUUCUTT against Olfr74 the value was inactive: -0.53. For CCAAUGACUUCUGGUUAGATT against Tdpoz1 the value was inactive: 0.665; for GGAUCUCGGGAAAAAGUUGTT against Spesp1, inactive: 0.185. For CGAGCAUGAAAAUUCGGUUTT against Neurog1, the z-score was inactive: 1.24.

As for GGUCAAAACACCUUUAGAUTT against Trip4, the z-score is inactive: -0.167. As for GGAGCAUCCACACUUUGUUTT against Hif3a, the z-score is inactive: -0.343. In the case of GGAGUUGUAGUGAGGGUCATT against Fcgbp, the z-score was inactive: -0.971.

As to GCAAACCUGACAAAAAUAGTT against Tifab, the z-score was inactive: 0.255. As to ACUAGACUGAACUACCUGATT against Aim2, the z-score was inactive: 0.137.

Turning to GGUAUUGUGGCCAGUAUUUTT against Ptdss2, the z-score was inactive: 0.185.

Regarding GGGCGAGAAGUUUAAACUUTT against Dnaja4, the z-score is inactive: 0.822. As to GGGAAAUGGUGAAUCACAGTT against Dpp8, the z-score is active: 2.25. For GCUACAGAUACCUCGGAUATT against Psme1, the z-score is inactive: 0.841. For the sequence GGGAAAAAUAUCAGUUAUGTT against Khdrbs1, the z-score is inactive: 0.465. In the case of GGUCUUUUCAGAAUAAACUTT against Timmdc1, the z-score is inactive: -1.29. With GCUCCAGUGAUUAUUUAUATT against Cep70, the z-score is inactive: 0.749. GGAAGACUAUUUUCUGUAUTT against Gabarapl1: the z-score was inactive: 1.61. For GGAGCUGUUUACCAUGUCATT against Rgl1, the z-score is inactive: -1.31. For the sequence GGUCUGGUGUUGUAGGAUATT against Map1lc3b, the z-score was active: 2.71.

Take CCAUGGCGAUGUCAUGUUCTT against Kcnrg: the z-score is inactive: 1.12. With GGACACAGAUGCUUUCUUGTT against Dnajc24, the z-score is inactive: -0.253. Take CCCGCACAUGAAAUCCGCUTT against Rflna: the z-score is inactive: 0.455. For GUUCAACGAGAGUUCCAGUTT against Olfr898 the value was inactive: -1.49. Take CAAUGUGCAGAGUUUCCGATT against LOC547349: the z-score was inactive: -1.98.

For GGAGGUGGUACAAUACACCTT against Gsg1, the z-score was active: 2.86.

With GGUCAAGUGCGAGAAACUCTT against Mafb, the z-score was inactive: -0.016. As to GGACAGAAGAAGAAAGCCCTT against Gpr22, the z-score is inactive: -0.539.

On to GGUAAAGUAGGGAUGGAAUTT against Inpp4b, for which the z-score was inactive: -0.0761. Consider GUCAUCAGGACUGGGAAGUTT against Sprr2b, for which the z-score is inactive: 0.597. In the case of CCCAAAUGCGCCAAAAUCATT against Adat2, the z-score was inactive: -0.243.

In the case of CGCAGUCACACCUUGUUAUTT against Cds2, the z-score is inactive: 0.428. Consider GGAUAUCGAGGAGAUGAUCTT against Aoc3, for which the z-score is active: -2.17. As to CGGUGCAUCCAAAUUCACATT against Zfp560, the z-score was inactive: 0.404. For GUGUCAUUUCCCGGGACAUTT against Atp5g1 the value was inactive: 1.64; for GGUUAAAAUGAGCUUGUUGTT against Rngtt, inactive: 1.02; for GGAGUUUGCCACAAUUGUUTT against Txndc11, inactive: -0.503.

Regarding GCCAUACUACGACAUGACATT against Sstr2, the z-score was inactive: -0.743.

“GGUGGAUAUCCUAUAACUATT against 4930402H24Rik”: the z-score was inactive: 0.469. With GGGUGACCUUGAUUCACACTT against Cda, the z-score was inactive: 0.203. For CCCGUGUCUAUGUGAAAAUTT against Olfr1015 the value was inactive: 0.226; for GCCUUAAUGAGGCUACUAGTT against Art2a, inactive: 0.111.
